Test results from patent US11135246B2, “Peptides and combination of peptides for use in immunotherapy against leukemias and other cancers” (Immatics Biotechnologies GmbH, priority 2017, dated 2021).

Test system: HLA molecules of primary tumor samples
Assay: Identification of tumor associated peptides presented on the cell surface (HLA immune precipitation, LC-MS)
Parameters: species or system human
Details: for Peptide Presentation on cancer entities: entities on which the peptide was presented, CLL = chronic lymphocytic leukemia, AML = acute myeloid leukemia, CML = Chronic myeloid leukemia; for Peptide Presentation on tumor types: tumor entities on which the peptide was found presented (Table 8b)

| Substance | Peptide Presentation on cancer entities | Peptide Presentation on tumor types |
| --- | --- | --- |
| 126 (EENKPGIVY; listed as Homo sapiens) [compound 126] | CLL | CRC, HCC, NHL |
| 139 (RENQVLGSGW; listed as Homo sapiens) [compound 139] | CLL | NHL |
| 59 (GLYEGTGRLF; listed as Homo sapiens) [compound 59] | AML | – |
| 66 (SQPAVATSF; listed as Homo sapiens) [compound 66] | AML | CRC, SCLC |
| 184 (RMPPFTQAF; listed as Homo sapiens) [compound 184] | CLL | BRCA, GBC, GC, MEL, NHL, NSCLCadeno, NSCLCother, NSCLCsquam, OC, PACA, PRCA, RCC, SCLC |
